Source: PMC3459911
Numbering of substitutions follows the chain as printed. Results are given in words; binding and its absence hold for the method and conditions named. In cells and extracts the contact can be indirect. Some results given as binding are weak or reduced against the parent protein; the word gives no strength. For some of these results: Where a sequence is shown, tags or fusion partners need not be part of it.

Protein sequences, listed by entry. Tags and fused reporters are not part of them.
UniProt Q8JZL2: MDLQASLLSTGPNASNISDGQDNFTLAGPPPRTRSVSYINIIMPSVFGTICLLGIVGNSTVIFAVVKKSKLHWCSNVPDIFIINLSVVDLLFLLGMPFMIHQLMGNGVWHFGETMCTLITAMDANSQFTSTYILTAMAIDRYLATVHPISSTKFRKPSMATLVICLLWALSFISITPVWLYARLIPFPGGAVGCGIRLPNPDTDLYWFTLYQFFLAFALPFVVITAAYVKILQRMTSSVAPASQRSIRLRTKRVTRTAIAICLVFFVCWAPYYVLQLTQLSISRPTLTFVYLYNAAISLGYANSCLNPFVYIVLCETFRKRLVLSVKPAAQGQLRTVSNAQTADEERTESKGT
UniProt P16858: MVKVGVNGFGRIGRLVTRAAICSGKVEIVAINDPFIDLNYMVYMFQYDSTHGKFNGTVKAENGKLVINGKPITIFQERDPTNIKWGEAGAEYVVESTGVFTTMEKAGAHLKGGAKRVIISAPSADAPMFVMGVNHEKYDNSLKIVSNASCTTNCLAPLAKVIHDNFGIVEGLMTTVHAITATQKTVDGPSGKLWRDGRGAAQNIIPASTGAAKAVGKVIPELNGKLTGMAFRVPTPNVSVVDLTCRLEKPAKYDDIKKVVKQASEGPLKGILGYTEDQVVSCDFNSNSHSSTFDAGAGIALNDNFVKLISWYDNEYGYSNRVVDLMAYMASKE
UniProt P30935: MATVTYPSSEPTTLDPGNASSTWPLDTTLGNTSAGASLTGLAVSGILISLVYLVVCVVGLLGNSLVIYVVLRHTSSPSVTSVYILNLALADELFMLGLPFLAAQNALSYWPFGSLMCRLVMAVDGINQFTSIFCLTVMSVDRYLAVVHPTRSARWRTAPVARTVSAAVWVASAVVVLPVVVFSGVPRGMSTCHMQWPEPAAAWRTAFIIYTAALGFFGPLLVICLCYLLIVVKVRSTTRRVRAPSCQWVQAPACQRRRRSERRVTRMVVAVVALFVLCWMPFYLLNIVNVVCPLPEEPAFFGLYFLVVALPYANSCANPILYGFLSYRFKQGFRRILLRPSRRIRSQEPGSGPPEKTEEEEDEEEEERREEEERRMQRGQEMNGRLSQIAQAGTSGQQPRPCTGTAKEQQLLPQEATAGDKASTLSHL
UniProt P63142: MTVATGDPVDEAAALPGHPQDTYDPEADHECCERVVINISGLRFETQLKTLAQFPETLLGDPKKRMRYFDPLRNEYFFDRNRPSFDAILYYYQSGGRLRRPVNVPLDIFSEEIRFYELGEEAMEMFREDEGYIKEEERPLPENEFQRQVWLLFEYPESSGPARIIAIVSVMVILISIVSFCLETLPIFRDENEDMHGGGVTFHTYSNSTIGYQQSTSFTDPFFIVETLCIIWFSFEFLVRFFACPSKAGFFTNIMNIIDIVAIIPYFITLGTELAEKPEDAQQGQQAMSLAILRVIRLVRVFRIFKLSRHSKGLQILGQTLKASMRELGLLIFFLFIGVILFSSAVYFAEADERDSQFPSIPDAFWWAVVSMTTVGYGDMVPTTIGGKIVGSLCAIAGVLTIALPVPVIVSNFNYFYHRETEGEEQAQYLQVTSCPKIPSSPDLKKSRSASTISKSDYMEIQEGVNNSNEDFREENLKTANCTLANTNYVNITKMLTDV

Experiments:
[1] = target: Mchr1 fused at the C-terminus to ECFP (UniProt Q8JZL2); experiment: FRET or BRET; sensitized emission FRET in live HEK293T cells co-transfected with Mchr1-ECFP and Sstr3-EYFP, imaged after 48 hours; cilium excluded from the analysis; n = 40 cells
[2] = target: endogenous melanin-concentrating hormone receptor 1 (Mchr1) of mouse hippocampus (mouse (endogenous in hippocampus)) (UniProt Q8JZL2); experiment: co-IP; endogenous proteins; membrane protein enriched lysate of the hippocampus of 5 week old WT mice precipitated overnight at 4°C with goat anti-Mchr1 (goat IgG as negative control), blotted with rabbit anti-Sstr3
[3] = target: myc-tagged glyceraldehyde-3-phosphate dehydrogenase (Gapdh-myc) (UniProt P16858); experiment: co-IP; HEK293T cells cotransfected with Sstr3 and Mchr1-myc or Gapdh-myc; lysate (1% NP-40, 150 mM NaCl, Tris pH 8.0) precipitated overnight at 4°C with anti-myc (9E10) on protein A-sepharose, blotted with anti-Sstr3
[4] = target: myc-tagged melanin-concentrating hormone receptor 1 (Mchr1-myc) (UniProt Q8JZL2); experiment: as above
[5] = target: somatostatin receptor 3 (Sstr3), untagged, expressed in HEK293T cells (UniProt P30935); experiment: co-IP; reverse experiment: HEK293T cells cotransfected with Sstr3 and Mchr1-myc or Gapdh-myc; lysate precipitated overnight at 4°C with goat anti-Sstr3 on protein A-sepharose, blotted with anti-myc
[6] = target: CFP-Kv1.2 (UniProt P63142); experiment: FRET or BRET; sensitized emission FRET, positive and negative controls (CFP-Kv1.2 with YFP-Kvβ2 or YFP-Kvβ2K235E); cells not stated for the controls

Molecule: Sstr3 fused at the C-terminus to EYFP (from UniProt P30935 1-428) (receptor)
- binding [1]: binds

Molecule: endogenous somatostatin receptor 3 (Sstr3) of mouse hippocampus (from UniProt P30935 1-428)
- binding [2]: binds

Molecule: somatostatin receptor 3 (Sstr3), untagged, expressed in HEK293T cells (from UniProt P30935 1-428)
- binding [3]: no binding
- binding [4]: binds

Molecule: myc-tagged melanin-concentrating hormone receptor 1 (Mchr1-myc) (from UniProt Q8JZL2 1-353)
- binding [5]: binds

B1: YFP-Kvβ2 (protein, UniProt P62483 1-367)
chain: MYPESTTGSPARLSLRQTGSPGMIYSTRYGSPKRQLQFYRNLGKSGLRVSCLGLGTWVTFGGQITDEMAEHLMTLAYDNGINLFDTAEVYAAGKAEVVLGNIIKKKGWRRSSLVITTKIFWGGKAETERGLSRKHIIEGLKASLERLQLEYVDVVFANRPDPNTPMEETVRAMTHVINQGMAMYWGTSRWSSMEIMEAYSVARQFNLIPPICEQAEYHMFQREKVEVQLPELFHKIGVGAMTWSPLACGIVSGKYDSGIPPYSRASLKGYQWLKDKILSEEGRRQQAKLKELQAIAERLGCTLPQLAIAWCLRNEGVSSVLLGASNAEQLMENIGAIQVLPKLSSSIVHEIDSILGNKPYSKKDYRS
- binding [6]: binds

B2: YFP-Kvβ2K235E (protein, UniProt P62483 1-367)
chain: B1 chain with K235E
- binding [6]: no binding
